This is an account of results in publication PMC12141448.

No constants are given. Whether binding was seen depends on the method and setting. In cells and extracts the contact can be indirect.

For the assay, the target named is T1, PelB of P. aeruginosa PAO1, C-terminal fragment (residues 762-1193) with three periplasmic TPR repeats and the transmembrane β-barrel (Pseudomonas aeruginosa PAO1) (UniProt Q9HZE5).
T1 sequence: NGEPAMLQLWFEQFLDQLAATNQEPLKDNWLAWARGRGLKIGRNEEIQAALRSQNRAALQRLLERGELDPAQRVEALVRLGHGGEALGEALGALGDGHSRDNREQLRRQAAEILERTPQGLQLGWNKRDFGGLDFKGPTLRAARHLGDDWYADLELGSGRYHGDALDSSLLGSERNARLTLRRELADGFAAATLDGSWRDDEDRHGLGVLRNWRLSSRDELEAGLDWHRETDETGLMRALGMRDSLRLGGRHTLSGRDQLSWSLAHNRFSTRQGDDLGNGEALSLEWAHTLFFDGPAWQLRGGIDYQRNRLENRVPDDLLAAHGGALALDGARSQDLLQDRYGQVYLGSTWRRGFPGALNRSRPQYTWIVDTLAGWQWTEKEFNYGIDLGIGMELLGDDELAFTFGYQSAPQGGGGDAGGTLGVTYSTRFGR
Nature of the assay: pull-down; Ni-NTA IMAC on His-tagged PelB co-expressed with tag-less PelC in E. coli; membranes solubilised with 2% DDM; 50 mM HEPES pH 7.4, 300 mM KCl, 5% glycerol, 0.05% DDM, 4 °C; SDS-PAGE of the fractions.

For “PelC_(W149A) mutant (Pseudomonas aeruginosa PAO1)”, the binding entry is listed as “no binding”.
